Assay results reported in the supplement of paper PMC3334620.
In all, about 33,000 sequences were measured (“E-score (-0.5 to 0.5)”: median about -0.0059, highest 2% from about 0.26 on). This is one part of the list.

Each sequence was assayed against T1, Cin5 (UniProt P40917) (assay: PBM E-score (8-mer binding enrichment) (E-score (-0.5 to 0.5)); higher = stronger / more preferred TF binding). Conditions: protein concentration: 100 nM; construct: GST-full length.
T1 sequence: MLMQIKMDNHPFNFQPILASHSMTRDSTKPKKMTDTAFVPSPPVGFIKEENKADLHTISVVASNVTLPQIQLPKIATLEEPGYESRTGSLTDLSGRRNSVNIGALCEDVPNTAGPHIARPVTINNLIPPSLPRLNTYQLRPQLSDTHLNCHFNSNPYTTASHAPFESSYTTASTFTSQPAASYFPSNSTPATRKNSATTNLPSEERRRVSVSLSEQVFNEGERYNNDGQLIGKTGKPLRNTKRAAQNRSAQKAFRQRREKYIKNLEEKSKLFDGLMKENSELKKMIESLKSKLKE
In short: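 Yeast transcription factors, full-length or as DNA-binding domains, were expressed with a GST tag using PURExpress in vitro transcription/translation. At about 100-200 nM they were applied to universal all-10-mer Agilent arrays, double-stranded by primer extension on fresh or once-stripped slides. Fluorescent anti-GST detected bound protein, and masliner normalised the scans. E-scores for ungapped eight-base words, pooled with reverse complements, came from the Universal PBM Analysis Suite.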

| Sequence | PBM E-score |
| --- | --- |
| AGTGATAT | 0.0781 |
| CGAAGTAC | 0.0621 |
| GGATTACA | 0.19 |
| ACACACAC | -0.0287 |
| CGAGAATA | 0.253 |
| AGACCAAT | 0.0449 |
| AGGGCGGG | 0.0413 |
| TACTTGAA | 0.0539 |
| GCAGTACA | -0.163 |
| CAACGAAG | -0.158 |
| CTACCAAG | -0.0838 |
| AAGGCCAG | -0.137 |
| AGCGTACT | 0.0381 |
| ATATGTTG | 0.172 |
| AGGTGCAA | -0.0194 |
| GTCGAGAA | 0.00963 |
| GGAAATCA | 0.0625 |
| CCCCAAAG | -0.236 |
| ATGGACAG | -0.15 |
| ATATCTCC | 0.173 |
| GTGAAGAA | 0.0248 |
| CAGTAGCC | -0.312 |
| AAATCGCT | -0.124 |
| AAGATCGC | -0.0416 |

| Sequence | PBM E-score |
| --- | --- |
| CCGGGAAG | -0.021 |
| AGAGTATG | -0.118 |
| CGATACAG | -0.0635 |
| CCAATTTC | 0.137 |
| ACACGTCC | -0.246 |
| CCGTCCGA | -0.221 |
| AGGTTAAC | 0.107 |
| CATTGACG | 0.0763 |
| CCGTAGCA | -0.158 |
| GAACGAAA | 0.131 |
| CCAGTGGG | -0.18 |
| ACCTTTGC | -0.0674 |
| ATAGAGTC | -0.111 |
| GGTACTTA | -0.0151 |
| AGTTTATC | 0.159 |
| CTTTGCCA | -0.0807 |
| ATTGCGGC | -0.0538 |
| CTGGAGGC | -0.117 |
| ATTATCTG | 0.152 |
| ACCGCAAA | -0.00101 |
| AATTCTTA | 0.0553 |
| CCCGGGAA | 0.0212 |
| ATTCGGGA | 0.0693 |
| CCATCGTA | 0.0405 |

| Sequence | PBM E-score |
| --- | --- |
| GACAGACA | 0.16 |
| AACATGTC | 0.0503 |
| CGACAACG | -0.0949 |
| AACTGCGG | 0.124 |
| ATTAACGA | 0.156 |
| AATAGAGG | -0.0845 |
| CCGCCGAG | -0.0417 |
| ATCTTACG | 0.164 |
| AAGTTTGG | 0.155 |
| AACTAAGT | 0.0793 |
| CCTTCACG | -0.0963 |
| CCCTGCAG | -0.00831 |
| CGTGAGAG | -0.215 |
| GGCCAAGA | -0.16 |
| CCAAAGTC | -0.128 |
| GGCTGGAA | -0.165 |
| ATGTGTCC | 0.156 |
| CGTTTTGC | -0.0443 |
| GCTGGGGA | -0.118 |
| CTCGCACA | 0.0581 |
| CTGACAGC | -0.0364 |
| CAAAAACC | 0.119 |
| GCATTACA | 0.167 |
| CTATTCAC | 0.0503 |

A second format for some results above:
Sequence | PBM E-score
CCCGGGAA | 0.0212
ATTCGGGA | 0.0693
CCATCGTA | 0.0405
GACAGACA | 0.16
AACATGTC | 0.0503
CGACAACG | -0.0949
AACTGCGG | 0.124

Going on with the list.

| Sequence | PBM E-score |
| --- | --- |
| AAAACCCG | -0.0221 |
| AAGAGTGT | -0.135 |
| CAAGAAGA | 0.059 |
| GGGTTAGA | -0.138 |
| GATAGGAC | -0.108 |
| CATCAACG | -0.0328 |
| ACATCACT | 0.103 |
| TGGTACCA | -0.0573 |
| ACGACATG | 0.0532 |
| CAGCAATC | 0.128 |
| ACCTACAT | 0.0732 |
| GGGGCTAC | -0.174 |
| ACGGTACT | -0.0767 |
| GGATAGAC | -0.0962 |
| CGCAAGAG | 0.0169 |
| CACGAACC | -0.0882 |
| AACATGAT | 0.213 |
| TAATCCTA | 0.0386 |
| AAGCGATC | 0.138 |
| AAACACAC | 0.115 |
| TATGGAAA | 0.144 |
| CGCCGAAA | -0.0208 |

Random excerpt: 2 records from the list, in no set order.

| Sequence | PBM E-score |
| --- | --- |
| GGATAGAC | -0.0962 |
| CACGAACC | -0.0882 |
